{"source": "PubChem BioAssay AID493014", "about": "(National Center for Advancing Translational Sciences (NCATS), 2011)", "note": "The campaign covered roughly 340,000 compounds. About 170 (0.05%) were called active. The shares of active, inactive and inconclusive entries below differ from those in the screen. Calls follow the shape of the dose curve; as a rule, active = well fitted inhibition curve with a large enough effect in the signal ratio, with a control signal flat (not every such curve was filed as active); inconclusive = small, poorly fitted or top-dose-only effect, or effect the other way, or a change in a side signal; inactive = flat fitted curve, though single readings scatter; the % refers to the signal ratio. Potencies beside an inconclusive call are fits to weak or partial responses and may not hold up. Potency is read from the fitted curve at half-maximal effect."}
{"assay": "qHTS Assay to Find Inhibitors of Chronic Active B-Cell Receptor Signaling;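 as to activity change, negative = inhibition: plate controls were basal doxycycline-induced cells for no effect and cells given 10 µM MG132 for full effect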", "details": "ABC-DLBCL IkBa-CBG/CBR reporter, luminescence ratio (green luciferase fused to IkBa over red control in TMD8 lymphoma cells), 4 h; activity change, negative = inhibition: at 46.1 µM (top of the series)", "outline": "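TMD8 human ABC-DLBCL cells with doxycycline-inducible IκBα–green luciferase fusion and unfused red luciferase, in 0.5% FBS medium; compounds up to 46 uM, 4 h at 37C. Green/red luminescence ratio, filter-overlap corrected, fitted to concentration-response curves.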"}
{"smiles": "CCOc1cc(C2C(C(=O)c3ccc(C)o3)=C(O)C(=O)N2CCc2ccccc2)ccc1O", "note": "(centres undefined)", "activity change, negative = inhibition": "inactive: 6.71%"}
{"smiles": "O=C(NC(=S)NCCC1=CCCCC1)c1ccco1", "activity change, negative = inhibition": "inconclusive: -9.04%"}
{"smiles": "Cc1c(C(=O)NCc2ccco2)oc2ccc(Br)cc12", "Potency": "inconclusive: 5.8 µM [falling, single point]"}
{"smiles": "CC1CC(=O)Nc2ccccc2N1C(=O)CSc1nnnn1C(C)C", "note": "(centres undefined)", "activity change, negative = inhibition": "inconclusive: -0.0444%"}
{"smiles": "COc1ccccc1N1CCN(CC(=O)c2c(C)n(C)c3ccccc23)CC1", "activity change, negative = inhibition": "inconclusive: 1.33%"}
{"smiles": "Clc1cccc(Cl)c1Cn1nnc(N2CCCC2)n1", "activity change, negative = inhibition": "inactive: -7.92%"}
{"smiles": "CN1/C(=C\\C(=O)COC(=O)C2COc3ccccc3O2)C(C)(C)c2ccccc21", "note": "(centres undefined)", "activity change, negative = inhibition": "inconclusive: -4.68%"}
{"smiles": "COc1cc(/C=N/NC(=O)c2cccnc2)cc2c1OCO2", "activity change, negative = inhibition": "inconclusive: -9.69%"}
{"smiles": "CC1=CC(C)(C)n2c(O)c(N=NC(N)=S)c3cccc1c32", "activity change, negative = inhibition": "inactive: -6.78%"}
{"smiles": "O=C(N/N=C\\c1ccc(Br)o1)C1COc2ccccc2O1", "note": "(centres undefined)", "activity change, negative = inhibition": "inactive: 1.75%"}
{"smiles": "Nc1nc(SCc2ccc(Br)cc2)[nH]c(=O)c1-c1ccccc1", "activity change, negative = inhibition": "inconclusive: -0.535%"}
{"smiles": "Cc1ccc2nc(-c3ccccc3O)c(Nc3ccc4c(c3)OCCO4)n2c1", "activity change, negative = inhibition": "inconclusive: 1.01%"}
{"smiles": "C=C(Cl)COc1ccc2c(CC)cc(=O)oc2c1", "activity change, negative = inhibition": "inconclusive: 9.29%"}
{"smiles": "CC(=O)CSc1nnc2cc(C)c3ccccc3n12", "activity change, negative = inhibition": "inconclusive: -0.0487%"}
{"smiles": "COc1ccccc1-c1nc2c3ccccc3nc(=S)n2[nH]1", "Potency": "inconclusive: 2.51 µM [falling, full curve, poor fit]"}
{"smiles": "CCOC(=O)C1=C(N)Oc2cc(O)ccc2C1c1ccc(Br)cc1", "note": "(centres undefined)", "Potency": "inconclusive: 14.1 µM [rising, partial curve, poor fit]"}
{"smiles": "Cc1ccccc1/C=c1\\s/c(=C\\C(=O)C(C)(C)C)[nH]c1=O", "activity change, negative = inhibition": "inactive: 5.68%"}
{"smiles": "Oc1ccc2cc(Br)ccc2c1CN1CCCC1", "activity change, negative = inhibition": "inconclusive: 8.81%"}
{"smiles": "COc1ccccc1CNC(=O)COC(=O)c1ccccc1-c1ccccc1", "activity change, negative = inhibition": "inconclusive: -5.22%"}
{"smiles": "CCSc1nc2ccccc2c(=O)n1Cc1ccc(F)cc1", "Potency": "inconclusive: 20 µM [rising, single point]"}
{"smiles": "Cc1c(C(=O)O)cccc1-c1ccc(/C=C2\\SC(=O)NC2=O)o1", "activity change, negative = inhibition": "inconclusive: 329%"}
{"smiles": "COc1ccc(Cn2nnnc2CN(CCCN2CCOCC2)Cc2cc3cc(OC)ccc3[nH]c2=O)cc1", "activity change, negative = inhibition": "inactive: 3.38%"}
{"smiles": "O=C(NCc1nc2ccccc2[nH]1)C1=C[C@H](c2ccc(C(F)(F)F)cc2)C[C@H](OCc2ccc(CO)cc2)O1", "Potency": "inconclusive: 35.5 µM [falling, partial curve, poor fit]"}
{"smiles": "Cc1[nH][nH]c(=O)c1C(c1ccc(Br)cc1)c1c(C)[nH][nH]c1=O", "activity change, negative = inhibition": "inconclusive: -0.195%"}
{"smiles": "COc1ccc(N(Cc2cc3ccccc3[nH]c2=O)S(=O)(=O)c2ccc(OC)cc2)cc1", "Potency": "inconclusive: 22.4 µM [falling, single point]"}
{"smiles": "N#CCCn1cc(/C=N/NC(N)=S)c(-c2ccc(-c3ccccc3)cc2)n1", "Potency": "inconclusive: 12.6 µM [falling, partial curve]"}
{"smiles": "Cc1ccc(S(=O)(=O)N(C)C)cc1NC(=O)C1CCN(C(=O)Nc2ccccc2)CC1", "activity change, negative = inhibition": "inactive: -10.9%"}
{"smiles": "O=C(NCc1cccs1)Nc1cccs1", "activity change, negative = inhibition": "inconclusive: -15.7%"}
{"smiles": "COCC(=O)N/N=C(\\C)CC(=O)Nc1ccccc1C(N)=O", "Potency": "inconclusive: 31.6 µM [falling, single point]"}
{"smiles": "COc1cc(NC(=O)COn2nnc3ccc(S(C)(=O)=O)cc32)cc(OC)c1", "activity change, negative = inhibition": "inconclusive: -19.7%"}
{"smiles": "COC(=O)c1cn(C(=O)c2ccc(C)cc2C)c2ccccc12", "activity change, negative = inhibition": "inconclusive: -20.8%"}
{"smiles": "CC(C)c1ccc(NC(=S)Nc2ccc(OC(F)(F)F)cc2)cc1", "Potency": "inconclusive: 7.08 µM [falling, partial curve, poor fit]"}
{"smiles": "Cc1ccc(-c2noc(CCC(=O)NCCCN3CCN(c4cccc(Cl)c4)CC3)n2)cc1", "activity change, negative = inhibition": "inconclusive: 0.249%"}
{"smiles": "OCc1cn(-c2ccccc2)nc1-c1cc2ccccc2o1", "Potency": "inconclusive: 35.5 µM [falling, single point]"}
{"smiles": "COc1ccccc1C(=O)Nc1ccccc1SC(=O)c1ccccc1OC", "Potency": "inconclusive: 35.5 µM [cytotoxic, single point]"}
{"smiles": "O=C(Cc1cccs1)NCc1ccco1", "activity change, negative = inhibition": "inconclusive: 0.595%"}
{"smiles": "CC(C)(C)OC(=O)N1CCC(c2c(C(=O)NC3CC3)cnn2-c2ccccc2)CC1", "activity change, negative = inhibition": "inactive: -4.33%"}
{"smiles": "N#CC1=C(Nc2ccccc2)SC=C(c2ccc(Cl)c(Cl)c2)N=C1N1CCOCC1", "activity change, negative = inhibition": "inconclusive: 6.21%"}
{"smiles": "CC(C(=O)O)n1c2ccccc2c2cnn(C)c(=O)c21", "note": "(centres undefined)", "activity change, negative = inhibition": "inactive: -1.12%"}
{"smiles": "CSCCC(NC(=O)c1ccccc1Cl)C(=O)NNC(=O)c1ccncc1", "note": "(centres undefined)", "activity change, negative = inhibition": "inactive: 2.26%"}
{"smiles": "O=C(N/N=C/c1ccc(Cl)cc1)c1sccc1OCc1ccc(F)cc1", "Potency": "inconclusive: 6.51 µM [falling, partial curve]"}
{"smiles": "COc1ccc(/C=N/NC(=S)Nc2cccc(C(=O)O)c2)cc1", "Potency": "inconclusive: 25.1 µM [falling, partial curve]"}
{"smiles": "COc1ccccc1C1C2CCCCC2(O)CCN1CC(=O)Nc1ccccc1", "note": "(centres undefined)", "activity change, negative = inhibition": "inconclusive: -1.01%"}
{"smiles": "COc1ccc(OC)c(NC(=O)Cc2nn(C)c(=O)c3ccccc23)c1", "Potency": "inconclusive: 20.6 µM [falling, partial curve]"}
{"smiles": "O=C(CSc1nnc(-c2ccc(Cl)cc2)n1Cc1ccco1)c1cccs1", "activity change, negative = inhibition": "inactive: 0.213%"}
{"smiles": "N/C(=N\\OC(=O)c1cccc2ccccc12)c1ccncc1", "activity change, negative = inhibition": "inconclusive: 12.9%"}
{"smiles": "COCCNC(=S)N/N=C(\\C)c1ccccc1F", "Potency": "inconclusive: 31.6 µM [cytotoxic, single point]"}
{"smiles": "O=C(C1CCCN(S(=O)(=O)c2ccc(Br)cc2)C1)N1CCN(Cc2ccccc2)CC1", "note": "(centres undefined)", "activity change, negative = inhibition": "inconclusive: -5.19%"}
{"smiles": "O=C(Nc1ccc(F)cc1F)c1cc2nc3c(c(C(F)(F)F)n2n1)CCCC3", "activity change, negative = inhibition": "inactive: 2.65%"}
{"smiles": "Cc1cc(=O)n2c(n1)NC(Nc1cccc(C)c1C)=NC2c1ccccc1", "note": "(centres undefined)", "activity change, negative = inhibition": "inconclusive: 28.7%"}
{"smiles": "O=C(Oc1ccccc1Cl)c1ccccc1P(=O)(O)O", "activity change, negative = inhibition": "inconclusive: 16.2%"}
{"smiles": "CN1CCN(C(=O)c2ccccc2NC(=O)c2cccc(Cl)c2)CC1", "activity change, negative = inhibition": "inconclusive: 10.3%"}
{"smiles": "Cc1cccc(-n2ncc3c2CCCC3NC(=O)c2ccc[n+]([O-])c2)c1C", "note": "(centres undefined)", "activity change, negative = inhibition": "inactive: -0.378%"}
{"smiles": "COc1ccccc1Cn1c(-c2ccccc2OC)nc2ccccc21", "Potency": "inconclusive: 2.06 µM [rising, partial curve]"}
{"smiles": "COC(=O)Nc1ccc(S(=O)(=O)Nc2cccc3ccccc23)cc1", "activity change, negative = inhibition": "inconclusive: -21.1%"}
{"smiles": "S=C(NCCc1ccncc1)Nc1cccc2ccccc12", "activity change, negative = inhibition": "inactive: 1.64%"}
{"smiles": "Cn1c(=O)c([N+](=O)[O-])c(NCc2ccccc2)c2ccccc21", "activity change, negative = inhibition": "inconclusive: -0.847%"}
{"smiles": "CCCC(=O)NC(=S)Nc1cccc(C(C)=O)c1", "activity change, negative = inhibition": "inactive: -0.951%"}
{"smiles": "CC(=O)OCc1nc2ccccc2s1", "activity change, negative = inhibition": "inconclusive: 25.5%"}
{"smiles": "Cc1csc(/C(C#N)=N/O)n1", "activity change, negative = inhibition": "inactive: 7.16%"}
{"smiles": "CNS(=O)(=O)c1ccc(NC(=O)c2nc3nc(C)cc(C(F)F)n3n2)cc1", "activity change, negative = inhibition": "inconclusive: -13.5%"}
{"smiles": "CCC1CCCCN1C(=S)NC(=O)c1cccs1", "note": "(centres undefined)", "activity change, negative = inhibition": "inconclusive: -17.7%"}
{"smiles": "CC(=O)Oc1ccc2occ(/C=N/c3cc(=O)[nH]c(=S)[nH]3)c(=O)c2c1", "Potency": "inconclusive: 7.08 µM [rising, partial curve, poor fit]"}
{"smiles": "COc1ccccc1NS(=O)(=O)NC(=O)c1cn(C)c2ccccc12", "Potency": "inconclusive: 28.2 µM [rising, single point]"}
{"smiles": "Cc1ccc(/C=N\\NC(=O)c2ccc3c(c2)OCO3)o1", "Potency": "inconclusive: 25.1 µM [falling, single point]"}
{"smiles": "Cc1nc(SCC(=O)Nc2cccc(Cl)c2)n[nH]1", "activity change, negative = inhibition": "inconclusive: 1.08%"}
{"smiles": "CC1(C)C=Cc2cc3ccc(=O)oc3cc2O1", "activity change, negative = inhibition": "inactive: -5.53%"}
{"smiles": "O=C1CC(Cc2ccc(Cl)cc2)C(=O)N1c1ccncc1", "note": "(centres undefined)", "activity change, negative = inhibition": "inactive: -3.36%"}
{"smiles": "O=C(C/C(=N\\NC(=O)c1ccccc1Br)C(F)(F)F)c1cccs1", "Potency": "inconclusive: 13 µM [falling, partial curve, poor fit]"}
{"smiles": "COc1cccc(CN(C)Cc2c(O)ccc3ccccc23)c1", "activity change, negative = inhibition": "inconclusive: -21.1%"}
{"smiles": "COc1ccc(C(=O)NC(=S)Nc2ccc(CN3CCOCC3)cc2)cc1", "activity change, negative = inhibition": "inactive: 1.32%"}
{"smiles": "O=C(Nc1ccc(Cl)cc1)OC(CN1CCCCC1)C(F)(F)F", "note": "(centres undefined)", "activity change, negative = inhibition": "inconclusive: 7.06%"}
{"smiles": "O=S(=O)(Nn1c(O)c(C=C2N=c3ccccc3=N2)sc1=S)c1ccccc1", "Potency": "inconclusive: 11.2 µM [falling, partial curve, poor fit]"}
{"smiles": "COc1cc2cc(CCCOC(=O)c3cc(OC)c(OC)c(OC)c3)oc(=O)c2cc1OC", "activity change, negative = inhibition": "inconclusive: 0.713%"}
{"smiles": "CCOc1cc(C2C(C(C)=O)=C(O)C(=O)N2CCc2c[nH]c3ccccc23)ccc1O", "note": "(centres undefined)", "activity change, negative = inhibition": "inconclusive: 7.51%"}
{"smiles": "O=c1/c(=C\\c2ccc(F)cc2)sc2n1CCCN=2", "Potency": "inconclusive: 17.8 µM [falling, single point]"}
{"smiles": "CCC1=Nc2cc(C(=O)NCCN3CCCC3)ccc2Sc2ccc(C)cc21", "activity change, negative = inhibition": "inconclusive: 1.76%"}
{"smiles": "N/C(=N\\OC(=O)c1ccc(Cl)cc1)c1cccnc1", "activity change, negative = inhibition": "inconclusive: 14%"}
{"smiles": "O=C1CC(c2ccc(O)c(O)c2)Oc2c1ccc(O)c2O", "note": "(centres undefined)", "activity change, negative = inhibition": "inactive: 8.81%"}
{"smiles": "CC(C)(C)c1cc(C(=S)N2CCCC2)cc(C(C)(C)C)c1O", "activity change, negative = inhibition": "inactive: -4.36%"}
{"smiles": "O=S(=O)(NCC(c1ccco1)S(=O)(=O)c1ccccc1)c1cc(F)ccc1F", "note": "(centres undefined)", "activity change, negative = inhibition": "inactive: -3.66%"}
{"smiles": "Cc1onc(-c2c(Cl)cccc2Cl)c1NC(=O)NN(C)c1ccc([N+](=O)[O-])cn1", "activity change, negative = inhibition": "inconclusive: 0.782%"}
{"smiles": "Cc1cccc(-c2cc(C(=O)Nc3cccnc3)c3ccccc3n2)c1", "activity change, negative = inhibition": "inconclusive: -10.4%"}
{"smiles": "CCC(=O)Nc1cccc(NC(=O)COc2ccc(OC)cc2)c1", "Potency": "inconclusive: 3.26 µM [falling, partial curve]"}
